# Out of some 330,000 compounds screened, about 7,700 (2.3%) were called active. The shares of active, inactive and inconclusive entries below differ from those in the screen. The call rests on the fitted dose curve; in most records, active means well fitted inhibition curve with a large enough effect; inconclusive means small, poorly fitted or top-dose-only effect, or effect the other way; inactive means flat fitted curve, though single readings scatter. Where the call is inconclusive, the potency comes from a doubtful curve fit.
# Assay: qHTS screen for small molecules that inhibit ELG1-dependent DNA repair in human embryonic kidney (HEK293T) cells expressing luciferase-tagged ELG1; further: nearly all actives have a fitted effect of over 55% in size
# Settings: HEK293T ELG1-luciferase reporter, luminescence, 16 h, DNA damage induced by 5-fluorouridine; series mostly up to 46.1 µM
# In short: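 5-Fluorouridine DNA damage + compound/DMSO, 2,000 cells/well, 16 h, 37 °C/5% CO2. ONE-Glo, 30 min RT, luminescence. Readout = decrease in reporter signal.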
# Potency means the concentration at half of the fitted maximal effect.
row,SMILES,Potency
1,CCCCn1c(O)c(C(CC)=NC(C)c2ccccc2)c(=O)[nH]c1=O (stereo not drawn),"inconclusive: 29.1 µM [inhibitor, single point]"
2,CCCNC(=O)c1c(N)n(CC2CCCO2)c2nc3ccccc3nc12 (stereo not drawn),"inconclusive: 29.1 µM [inhibitor, partial curve, poor fit]"
3,O=C(N/N=C1/CN2CCC1CC2)c1cc2ccccc2cc1O,inactive
4,COc1ccc(C[C@@H]2c3cc(O)c(OC)cc3CCN2C)cc1O,inactive
5,Cc1cccc(OP(=O)(Nc2ccc(F)cc2)Oc2cccc(C)c2)c1,"inconclusive: 23.1 µM [inhibitor, single point]"
6,c1ccc2c(CN3CCCCCC3)c[nH]c2c1,"inconclusive: 20.6 µM [activator, partial curve]"
7,CC(C)(C)OC(=O)NCc1ccc(CNC(=O)c2nc[nH]c2C(=O)NCc2ccc(CNC(=O)OC(C)(C)C)cc2)cc1,active: 2.91 µM
8,CNC(=O)Oc1ccc2c(c1)C(=O)c1ccccc1CO2,"inconclusive: 14.6 µM [activator, partial curve]"
9,O=[N+]([O-])/C=C/c1c(OCc2ccccc2)ccc2ccccc12,"inconclusive: 18.4 µM [inhibitor, single point]"
10,COC(=O)c1ccc(Cl)c(NC(=O)CN2CCN(Cc3ccccc3)CC2)c1,"inconclusive: 4.11 µM [inhibitor, single point]"
11,O=C(/C=C/c1ccc(Cl)cc1)NC(=S)N1C[C@H]2C[C@H](C1)c1cccc(=O)n1C2,inactive
12,CCOc1c(Cl)cc(CNc2ccc(S(N)(=O)=O)cc2)cc1OC,"inconclusive: 29.1 µM [inhibitor, single point]"
13,Clc1cccc(/C=N\Nc2nccs2)c1,"inconclusive: 14.6 µM [activator, partial curve]"
14,Cc1cnc[nH]1,inactive
15,CN(CC(=O)N1CCc2ccccc21)S(=O)(=O)c1cccs1,"inconclusive: 14.6 µM [activator, partial curve]"
16,COc1ccc(C(=O)N/N=C\c2coc3ccc(C)cc3c2=O)cc1,"inconclusive: 9.2 µM [inhibitor, partial curve]"
17,O=C1C2CCN(CC2)C12CC2c1ccc(C(F)(F)F)cc1 (stereo not drawn),inactive
18,CCCCNS(=O)(=O)c1ccc(OCC(=O)N2CCN(Cc3ccc4c(c3)OCO4)CC2)cc1,inactive
19,O=[N+]([O-])c1cccc(NP(=O)(Oc2ccccc2)Oc2ccccc2)c1,"inconclusive: 20.6 µM [inhibitor, partial curve, poor fit]"
20,CC(Cc1ccccc1)/[N+]([O-])=C\c1ccc(C(F)(F)F)cc1 (stereo not drawn),"inconclusive: 10 µM [activator, single point]"
21,COc1ccc(/C=C/C(=O)c2c(O)n(CCC3=CCCCC3)c(=O)[nH]c2=O)cc1,"inconclusive: 32.6 µM [inhibitor, single point]"
22,CCCSc1ccc2nc(NC(=O)OC)[nH]c2c1,"inconclusive: 14.6 µM [activator, partial curve, poor fit]"
23,NC(Cc1ccccc1)c1nc(-c2ccccc2)no1 (stereo not drawn),"inconclusive: 18.3 µM [activator, single point]"

row,SMILES,Potency
1,O=C1CN=C(c2ccccc2)c2cc(Br)ccc2N1Cc1cc(=O)n2ccccc2n1,inactive
2,COc1cc(/C=N/NC(=O)Cn2c([N+](=O)[O-])cnc2C)ccc1OC(=O)N(C)C,"inconclusive: 29.1 µM [activator, single point]"
3,O=C(N/N=C\c1ccc(COc2ccc([N+](=O)[O-])cc2)o1)c1cccc(Cl)c1,"inconclusive: 14.6 µM [inhibitor, single point]"
4,COc1cccc(N2C(=O)NC(=O)/C(=C\c3cn(C)c4ccccc34)C2=O)c1,"inconclusive: 23.1 µM [activator, single point]"
5,CC(=NCC1CCCO1)c1c(O)n(-c2ccccc2C)c(=O)[nH]c1=O (stereo not drawn),inactive
6,COc1ccccc1C1=NCc2nnc(C)n2-c2ccc(Cl)cc21,"inconclusive: 18.4 µM [activator, partial curve]"
7,COc1ccc(CCNC2CCCCC2)cc1,inactive
8,C[C@H](CO)N1C[C@H](C)[C@@H](CN(C)S(=O)(=O)c2cccs2)Oc2ccc(NC(=O)Nc3ccc(C(F)(F)F)cc3)cc2C1=O,"inconclusive: 32.6 µM [inhibitor, single point]"
9,C=CCn1c(O)c(C(C)=NCc2cccnc2)c(=O)[nH]c1=O,"inconclusive: 23.1 µM [activator, partial curve, poor fit]"
10,O=C(CN1CCCCC1)c1ccccc1F,inactive
11,COc1ccc2ccc(O)c(CN3CC=C(c4ccccc4)CC3)c2c1,inactive
12,CN1C(=O)/C(=C/C=C/c2ccco2)C(=O)NC1=S,inactive
13,O=c1[nH]c(=S)n(-c2ccc(Br)cc2)c(O)c1C=Nc1ccc(N2CCOCC2)cc1,"inconclusive: 16.4 µM [activator, single point]"
14,CCC(=Nc1ccccc1N)c1c(O)[nH]c(=O)[nH]c1=O,"inconclusive: 23.1 µM [activator, single point]"
15,COc1ccc(CN2CCN(Cc3ccccc3OC)CC2)cc1,inactive
16,Cc1ccc(-c2nn(C)c(=O)c3ccccc23)cc1CNC(=O)/C=C/c1ccccc1,active: 16.4 µM
17,O=c1[nH]c2ccccc2n1C1CCN(CCCC(c2ccc(F)cc2)c2ccc(F)cc2)CC1,"inconclusive: 29.1 µM [inhibitor, single point]"
18,Cc1nc2c(-c3ccc(F)cc3)c(C)nn2c(C)c1CCC(=O)N1CCC2(CC1)OCCO2,"inconclusive: 16.4 µM [inhibitor, partial curve]"
19,C[C@]12CCC3C(CC[C@H]4C[C@@H](O)CC[C@]34C)C1C[C@H](Br)[C@@H]2O (stereo partly drawn),"inconclusive: 25.9 µM [inhibitor, partial curve, poor fit]"
20,Brc1ccc2c(c1)C(OC1CN3CCC1CC3)c1ccccc1CS2 (stereo not drawn),"inconclusive: 32.6 µM [inhibitor, single point]"
21,Cc1cc2c(C(C)C)c(O)c(O)c(C=O)c2c(O)c1-c1c(C)cc2c(C(C)C)c(O)c(O)c(C=O)c2c1O,inactive
22,Cc1c(N)cccc1N,"inconclusive: 32.6 µM [activator, partial curve, poor fit]"
23,CCC(C)N1C(=O)/C(=C\c2cc3c4c(c2)CCCN4CCC3)C(=O)NC1=S (stereo not drawn),"inconclusive: 23.1 µM [inhibitor, partial curve, poor fit]"

row,SMILES,Potency
1,O=C1COc2ccc(C(=O)COC(=O)Cc3ccccc3)cc2N1,"inconclusive: 29.1 µM [activator, single point]"
2,COc1cccc(NC(=O)N2CCC3(CC2)OCCO3)c1,"inconclusive: 20.6 µM [activator, partial curve]"
3,COc1ccc2c(C)c(CC(=O)N3C[C@H]4C[C@@H](C3)c3cccc(=O)n3C4)c(=O)oc2c1C,"inconclusive: 0.0046 µM [activator, full curve, poor fit]"
4,CC(C)C[C@H]1C(=O)N2CCC[C@H]2[C@]2(O)O[C@](NC(=O)[C@@H]3C=C4c5cccc6[nH]c(Br)c(c56)CC4N(C)C3)(C(C)C)C(=O)N12 (stereo partly drawn),active: 18.4 µM
5,O=C(C1CCC(=O)N1Cc1ccccc1Cl)N1CCC2(CC1)OCCO2 (stereo not drawn),inactive
6,CCN1CCN(C(c2cccs2)C(C)NC(=O)Oc2ccccc2)CC1 (stereo not drawn),"inconclusive: 25.9 µM [activator, partial curve, poor fit]"
7,O=C(CSc1ccccc1)N1CCC2(CC1)OCCO2,"inconclusive: 11.6 µM [activator, partial curve]"
8,O=C1NC(=O)N(Cc2ccc(F)cc2)C(=O)/C1=C\C=C\c1ccco1,"inconclusive: 23.1 µM [inhibitor, single point]"
9,CCSc1cc(C2C(C#N)=C(N)Oc3n[nH]c(C)c32)c(C)o1 (stereo not drawn),"inconclusive: 32.6 µM [activator, single point]"
10,Cc1cccc(C#N)c1,"inconclusive: 11.6 µM [activator, partial curve, poor fit]"
11,Cc1ccc(NC(=O)c2ccc(C)c(S(=O)(=O)N3CCCCC3)c2)nc1,"inconclusive: 29.1 µM [inhibitor, single point]"
12,O=C1NC(=O)N(CCc2ccc(F)cc2)C(=O)/C1=C/C=C/c1ccccc1,"inconclusive: 29.1 µM [inhibitor, single point]"
13,CCOc1ccc(-c2c(C)n(-c3ccc(OCC)cc3)c3[n+]2CCCCC3)cc1,active: 0.291 µM
14,CCC(=NCCC(c1ccccc1)c1ccccc1)c1c(O)[nH]c(=O)[nH]c1=O,"inconclusive: 25.9 µM [inhibitor, single point]"
15,Cc1cccc(N2CCN(CCc3ccccc3)CC2)c1C,inactive
16,CCCNC(=O)N1[C@H]2CC[C@@H]1C(C(=O)OC)=C(c1c(C)noc1C)C2,inactive
17,CCCCCCCCn1sccc1=O,"inconclusive: 29.1 µM [inhibitor, single point]"
18,CC(C)(C)c1ccc(CSc2cnn(C(C)(C)C)c(=O)c2Cl)cc1,"inconclusive: 0.0046 µM [inhibitor, full curve, poor fit]"
19,Nc1ccc(C2(c3ccc(N)cc3)CN3CCC2CC3)cc1,inactive
20,COc1ccc(NC2=NC(C)(C)CS2)cc1,"inconclusive: 20.6 µM [activator, partial curve]"
21,CCN(CCNc1ccc([N+](=O)[O-])c2cccnc12)S(=O)(=O)c1ccc(Cl)cc1,"inconclusive: 18.4 µM [inhibitor, partial curve, poor fit]"
22,O=P(Oc1ccccc1)(Oc1ccccc1)N1CCN(c2ccc(F)cc2)CC1,"inconclusive: 20.6 µM [inhibitor, single point]"

# Given as tab-separated lines: four of the compounds above
row	SMILES	Potency
11	O=C(/C=C/c1ccc(Cl)cc1)NC(=S)N1C[C@H]2C[C@H](C1)c1cccc(=O)n1C2	inactive
3	O=C(N/N=C\c1ccc(COc2ccc([N+](=O)[O-])cc2)o1)c1cccc(Cl)c1	inconclusive: 14.6 µM [inhibitor, single point]
10	O=C(CN1CCCCC1)c1ccccc1F	inactive
11	COc1ccc2ccc(O)c(CN3CC=C(c4ccccc4)CC3)c2c1	inactive
